{"source": "paper PMC12040169", "about": "(PLOS Biology, 2025)", "note": "The list shows a part of the results.", "data": [{"test_system": "T1, CTL2-GFP (C. trachomatis L2/434/Bu, GFP-expressing)", "T1 construct": "L2/434/Bu, GFP-expressing", "set-up": "species or system HeLa; Intracellular C. trachomatis growth in HeLa cells, bulk GFP fluorescence relative to DMSO", "details": "bulk GFP, single well; 28.5 h, 10 µM; inhibitor", "units": {"% of control remaining": "%"}, "values": [{"molecule": "Cc1cc(C(F)(F)F)nc2c(OCCOc3nccnc3N3CCNCC3)cnn12", "note": "[CBK024195C]", "% of control remaining": 118.594}, {"molecule": "c1ccc(-c2nc3sc4c(ncn5cnnc45)c3c3c2CCC3)cc1", "note": "[CBK269566]", "% of control remaining": 140.566}, {"molecule": "O=C(c1ccc(-c2ccc(F)cc2)o1)N1C[C@H]2CC[C@](O)(c3ccc(F)cc3)[C@H]2C1", "note": "[CBK286415]", "% of control remaining": 17.3049}, {"molecule": "COc1cc(-c2nccnc2NCc2ccc(OC(F)(F)F)cc2)cc(OC)c1OC", "note": "[CBK038063]", "% of control remaining": 98.5068}, {"molecule": "CC(C)S(=O)(=O)N1C2CCC(C2)[C@@H]1COc1ccc(F)cc1", "note": "(stereo partly shown) [CBK285292]", "% of control remaining": 95.5783}, {"molecule": "O=C(O)c1cc(S(=O)(=O)N2CCOCC2)ccc1F", "note": "[CBK268398]", "% of control remaining": 88.5248}, {"molecule": "CS(=O)(=O)c1ccc(-c2ccc(C(=O)N3CCN(C(=O)OCc4ccccc4)CC3)cn2)cc1", "note": "[CBK160189]", "% of control remaining": 89.4045}, {"molecule": "CN1CCC(N2CCN(C(=O)NCCOc3ccccc3)CC2)CC1", "note": "[CBK156098]", "% of control remaining": 139.733}, {"molecule": "CCCc1[nH]nc(O)c1CCc1ccccc1", "note": "[CBK075083]", "% of control remaining": 130.198}, {"molecule": "Clc1ccc(-c2csc(NCc3ccco3)n2)cc1", "note": "[CBK058168]", "% of control remaining": 117.668}, {"molecule": "CC(C)NC(=O)N[C@H]1CCN2C(=O)N(c3ccc(F)c(Cl)c3)C(=O)[C@@H]2C1", "note": "[CBK289540]", "% of control remaining": 122.037}, {"molecule": "Cc1c(F)cccc1CN1CCN(S(=O)(=O)c2ccc(C(=O)c3ccccc3)cc2)CC1", "note": "[CBK062929]", "% of control remaining": 97.1133}, {"molecule": "Cn1c(=N)n(CC(=O)O)c2ccccc21", "note": "[CBK262926B]", "% of control remaining": 100}, {"molecule": "COc1cc(CNn2cnnc2S)ccc1OCC(=O)NC(C)(C)C", "note": "[CBK266429]", "% of control remaining": 81.5121}, {"molecule": "Cc1noc(CN2CCN(CCc3ccc4c(c3)CCO4)CC2)n1", "note": "[CBK305208]", "% of control remaining": 97.3158}, {"molecule": "Cc1nccn1C(=O)NC1CCCCC1", "note": "[CBK019187]", "% of control remaining": 128.654}, {"molecule": "COCc1ccc(-c2nccnc2NS(=O)(=O)c2c(C)noc2C)cc1", "note": "[CBK049656]", "% of control remaining": 84.039}, {"molecule": "CN(C)CCCNC(=S)NCc1ccc(Cl)cc1", "note": "[CBK266910]", "% of control remaining": 201.51}, {"molecule": "O=C(O)COc1ccc(NC(=O)CSCc2ccc(Cl)cc2Cl)cc1", "note": "[CBK131700]", "% of control remaining": 97.1417}, {"molecule": "CCNCc1cc2c(C)nn(-c3ccc(F)cc3)c2[nH]c1=O", "note": "[CBK283118]", "% of control remaining": 96.2426}, {"molecule": "CC(O)CN1CCN(c2nc(-c3ccncc3)nc3c2CCC3)CC1", "note": "(stereo not shown) [CBK304971]", "% of control remaining": 106.578}, {"molecule": "COc1ccc2[nH]c3c(c2c1)CCOC31CCN(C(=O)Nc2ccc(C(C)C)cc2)CC1", "note": "[CBK047154]", "% of control remaining": 94.9006}]}]}
